No constants are given. Whether binding was seen depends on the method and setting. In cells and extracts the contact can be indirect. Here binding means that the protein was enriched with, or labelled near, the bait; the list need not be complete.
Molecular target: receptor-interacting serine/threonine-protein kinase 1 (RIPK1), endogenous in AC16 cells (human (endogenous in AC16)) (UniProt Q13546)
Experiment: affinity purification with mass spectrometry; Co-IP of endogenous RIPK1 coupled with LC-MS/MS, under EtOH stimulation; NP-40 lysis buffer, Protein A/G magnetic beads, overnight at 4 °C

By UniProt entry, the sequences of proteins in these tests, tags left out.
UniProt Q13546: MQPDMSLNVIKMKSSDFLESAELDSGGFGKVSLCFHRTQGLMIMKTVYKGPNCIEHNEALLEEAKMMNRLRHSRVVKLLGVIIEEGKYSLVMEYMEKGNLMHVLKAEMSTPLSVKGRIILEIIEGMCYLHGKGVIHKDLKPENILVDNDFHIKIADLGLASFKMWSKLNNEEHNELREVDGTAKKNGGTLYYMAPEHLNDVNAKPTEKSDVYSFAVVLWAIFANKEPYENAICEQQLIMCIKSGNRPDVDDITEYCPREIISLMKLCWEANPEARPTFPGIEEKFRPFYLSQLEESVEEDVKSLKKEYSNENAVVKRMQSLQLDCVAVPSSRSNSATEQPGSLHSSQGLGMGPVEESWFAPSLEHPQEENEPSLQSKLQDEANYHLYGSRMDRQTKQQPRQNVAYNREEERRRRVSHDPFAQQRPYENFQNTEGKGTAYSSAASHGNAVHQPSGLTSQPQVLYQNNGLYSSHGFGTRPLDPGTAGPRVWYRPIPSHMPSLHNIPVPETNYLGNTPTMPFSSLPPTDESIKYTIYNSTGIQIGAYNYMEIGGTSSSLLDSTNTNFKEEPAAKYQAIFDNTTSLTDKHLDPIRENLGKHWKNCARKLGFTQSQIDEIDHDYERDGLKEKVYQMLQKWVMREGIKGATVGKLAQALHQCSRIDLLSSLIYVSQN

B1: ubiquitin-specific protease 53 (USP53), endogenous in AC16 cells (protein, UniProt Q70EK8 1-1073)
chain: MAWVKFLRKPGGNLGKVYQPGSMLSLAPTKGLLNEPGQNSCFLNSAVQVLWQLDIFRRSLRVLTGHVCQGDACIFCALKTIFAQFQHSREKALPSDNIRHALAESFKDEQRFQLGLMDDAAECFENMLERIHFHIVPSRDADMCTSKSCITHQKFAMTLYEQCVCRSCGASSDPLPFTEFVRYISTTALCNEVERMLERHERFKPEMFAELLQAANTTDDYRKCPSNCGQKIKIRRVLMNCPEIVTIGLVWDSEHSDLTEAVVRNLATHLYLPGLFYRVTDENAKNSELNLVGMICYTSQHYCAFAFHTKSSKWVFFDDANVKEIGTRWKDVVSKCIRCHFQPLLLFYANPDGTAVSTEDALRQVISWSHYKSVAENMGCEKPVIHKSDNLKENGFGDQAKQRENQKFPTDNISSSNRSHSHTGVGKGPAKLSHIDQREKIKDISRECALKAIEQKNLLSSQRKDLEKGQRKDLGRHRDLVDEDLSHFQSGSPPAPNGFKQHGNPHLYHSQGKGSYKHDRVVPQSRASAQIISSSKSQILAPGEKITGKVKSDNGTGYDTDSSQDSRDRGNSCDSSSKSRNRGWKPMRETLNVDSIFSESEKRQHSPRHKPNISNKPKSSKDPSFSNWPKENPKQKGLMTIYEDEMKQEIGSRSSLESNGKGAEKNKGLVEGKVHGDNWQMQRTESGYESSDHISNGSTNLDSPVIDGNGTVMDISGVKETVCFSDQITTSNLNKERGDCTSLQSQHHLEGFRKELRNLEAGYKSHEFHPESHLQIKNHLIKRSHVHEDNGKLFPSSSLQIPKDHNAREHIHQSDEQKLEKPNECKFSEWLNIENSERTGLPFHVDNSASGKRVNSNEPSSLWSSHLRTVGLKPETAPLIQQQNIMDQCYFENSLSTECIIRSASRSDGCQMPKLFCQNLPPPLPPKKYAITSVPQSEKSESTPDVKLTEVFKATSHLPKHSLSTASEPSLEVSTHMNDERHKETFQVRECFGNTPNCPSSSSTNDFQANSGAIDAFCQPELDSISTCPNETVSLTTYFSVDSCMTDTYRLKYHQRPKLSFPESSGFCNNSLS
Question: For B1, which binding is on record?
Answer: binds

From PMC12352791
